PMC7819943, “Rice protein-binding microarrays: a tool to detect cis-acting elements near promoter regions in rice”
This is one part of the list.

The chains behind the UniProt entries cited, without tags or fusion partners.
UniProt Q0JBA9, entry or part of it: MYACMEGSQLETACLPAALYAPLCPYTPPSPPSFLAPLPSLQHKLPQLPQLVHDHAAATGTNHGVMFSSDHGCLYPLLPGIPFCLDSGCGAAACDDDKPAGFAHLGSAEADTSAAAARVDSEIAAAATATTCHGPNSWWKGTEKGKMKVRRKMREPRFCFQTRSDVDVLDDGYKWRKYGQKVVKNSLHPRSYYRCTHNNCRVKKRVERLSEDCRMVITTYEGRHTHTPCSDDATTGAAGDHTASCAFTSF

Each sequence was assayed against OsWRKY34 (Oryza sativa, UniProt Q0JBA9 1-250) (assay: protein-binding microarray (RPBM); PBS, 2% BSA, 51.3 ng/ul salmon testes DNA, 50 uM zinc acetate, 200 nM TF, 25 C, 1 h; high values mean tight binding). Settings: protein: recombinant; tags: N-terminal polyhistidine and DsRed monomer fusion (pET32a); label: CyDye5-dUTP incorporated in the synthesized complementary strand; 3' TTTTT single-stranded linker to array surface; dsDNA, one strand shown.
How it was run: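 Ni–NTA purification followed expression in E. coli BL21-CodonPlus of transcription factors fused N-terminally to a polyhistidine tag and DsRed. At 200 nM in PBS with 2% BSA, salmon testes DNA and 50 µM zinc acetate, the protein was incubated for 1 h at 25 °C with a custom Agilent array that had been primer-extended with Cy5-dUTP and blocked with 2% BSA. After washing, the array was read on an Axon 4000B scanner. The binding signal is per-feature fluorescence intensity in arbitrary units.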

Row | Sequence | binding signal
1 | TATCAGTTCCGTGATATTGGGCGGGATGTGGATGTTGAGTCGGAGTCACCTAGTGCAG | 10900 fluorescence intensity (a.u.)
2 | CCGGTGTGTTGTATTAAGTGGTATTTTATCCGAACCCAATCGGAGTCACCTAGTGCAG | 10800 fluorescence intensity (a.u.)
3 | CTCGCATTATCTTCTTCCCCAATTTGCGCCGCTACTAGTACGGAGTCACCTAGTGCAG | 8120 fluorescence intensity (a.u.)
4 | CAGAATCGCAGCCATATCTTCCCTTGTCCATCCGCCAACGCGGAGTCACCTAGTGCAG | 8820 fluorescence intensity (a.u.)
5 | ACATCACTTACCAATAATCACTGACCATGCACATTTTCGACGGAGTCACCTAGTGCAG | 8780 fluorescence intensity (a.u.)
6 | CACATTTACATTTGGTTCACCGCCGGAATAAACTGTACCACGGAGTCACCTAGTGCAG | 8330 fluorescence intensity (a.u.)
7 | CCTTGTTTTGCTTTTCTTTCTTCATGAATGCATTCTCTCACGGAGTCACCTAGTGCAG | 9860 fluorescence intensity (a.u.)
8 | TTGACCCCGTATACGATCATCTGTTAGCTACCGTATATCCCGGAGTCACCTAGTGCAG | 9040 fluorescence intensity (a.u.)
9 | AGCTAACGTTTCAGTCGCCTTCTTTCTGTATAGCACCACTCGGAGTCACCTAGTGCAG | 8540 fluorescence intensity (a.u.)
10 | GTGATTATTTCGACAGTGTTCATATTGTTTATCCCCTATTCGGAGTCACCTAGTGCAG | 9180 fluorescence intensity (a.u.)
11 | TCACTTTTTTGTTAATATTTTTGTTGTCATTTTACTATTTCGGAGTCACCTAGTGCAG | 9060 fluorescence intensity (a.u.)
12 | CTCCTCGCCGTCACCTCGATCGGCCCGTCAATCTGTTCTCCGGAGTCACCTAGTGCAG | 8080 fluorescence intensity (a.u.)
13 | ATTTCCACGTCGTCTGTTATTTTGTGCTGCTTCTCTCTTGCGGAGTCACCTAGTGCAG | 11200 fluorescence intensity (a.u.)
14 | TACATGTTAAATCGATTCCAGCTGCCAGCATAATCACATTCGGAGTCACCTAGTGCAG | 8570 fluorescence intensity (a.u.)
15 | GACTTGATAATTACCTTATTCTGTGTTCTGTGATAGCCTTCGGAGTCACCTAGTGCAG | 9420 fluorescence intensity (a.u.)
16 | TGCATATTCTTTTCTCTGTTTCTTCCTTGCAACAAAAATACGGAGTCACCTAGTGCAG | 8480 fluorescence intensity (a.u.)
17 | TGTTCCTCCACGTCGCTCCGCCGCTCCGCCCGCCTTGCTTCGGAGTCACCTAGTGCAG | 10900 fluorescence intensity (a.u.)
18 | CCTCTTCCGAGCTGTCTCCCATGACACCACCGCCGCCGCCCGGAGTCACCTAGTGCAG | 10200 fluorescence intensity (a.u.)
19 | GTTGTTGCCGCGATGCTTGGACTCTCTATTCTTCTCTTGCCGGAGTCACCTAGTGCAG | 8500 fluorescence intensity (a.u.)
20 | TGTTTTGTGGGGAGGGGTGTACATATACAACTTAGTACTCCGGAGTCACCTAGTGCAG | 20300 fluorescence intensity (a.u.)
21 | AGCAGCAGTTAGCATCTCCTTTATGCCTCCTTTATGCTTTCGGAGTCACCTAGTGCAG | 9940 fluorescence intensity (a.u.)
22 | CACTTATCCATCCGCTGACACCTGCACAAACAAACCAGTTCGGAGTCACCTAGTGCAG | 8970 fluorescence intensity (a.u.)
23 | CCGCGCCACCGCCGTCGCCGCCGCCCTCGACTGCCGCCGCCGGAGTCACCTAGTGCAG | 10500 fluorescence intensity (a.u.)
24 | CTCCTGTCTTCCGGCTAAAGTTCGGCACAACATGTTCCAGCGGAGTCACCTAGTGCAG | 8380 fluorescence intensity (a.u.)
25 | AATACTACCTCCGTTTTAAAATGTTTGACGCCGTTGATATCGGAGTCACCTAGTGCAG | 8440 fluorescence intensity (a.u.)
26 | TCCTTCGTCTCGACTCCAGTTGGGGAGGCATTCTTTTCTTCGGAGTCACCTAGTGCAG | 9420 fluorescence intensity (a.u.)
27 | TCGTGAGAGTGTTATACAGGTGTGTTTGCTCGTATTTCTACGGAGTCACCTAGTGCAG | 8060 fluorescence intensity (a.u.)

From no. 23 up to 24, as listed above:
Row | Sequence | binding signal
23 | CCGCGCCACCGCCGTCGCCGCCGCCCTCGACTGCCGCCGCCGGAGTCACCTAGTGCAG | 10500 fluorescence intensity (a.u.)
24 | CTCCTGTCTTCCGGCTAAAGTTCGGCACAACATGTTCCAGCGGAGTCACCTAGTGCAG | 8380 fluorescence intensity (a.u.)

The results go on:

Row | Sequence | binding signal
28 | ACCATCCTGCTGCAACTGGCACTTTCTTCACTGCAATGCTCGGAGTCACCTAGTGCAG | 9970 fluorescence intensity (a.u.)
29 | GTCGGTCCAGAATTTTTGATGTGCACGCTTATGTGCGCGCCGGAGTCACCTAGTGCAG | 8170 fluorescence intensity (a.u.)
30 | CTCCATTTAACAGATGACGTCGTTGACTTTTTCTTACATGCGGAGTCACCTAGTGCAG | 26900 fluorescence intensity (a.u.)
31 | TTGATGACCTGTATTCTCATGATTCACTTTCAAGTTCAGTCGGAGTCACCTAGTGCAG | 8240 fluorescence intensity (a.u.)
32 | CGTGGCTTCTCATCTTCTGCCTCCACTTCTCCGTCTTCGACGGAGTCACCTAGTGCAG | 11100 fluorescence intensity (a.u.)
33 | GCAGTTTTGCACTGTTCATATCCAACATTTGACCATTCATCGGAGTCACCTAGTGCAG | 8770 fluorescence intensity (a.u.)
34 | CCTCTACTGGGTTGGCGGGGAGTGGATCGGGGATCTGCACCGGAGTCACCTAGTGCAG | 10700 fluorescence intensity (a.u.)
35 | TTATATTCACAATCACTTTTTCTTTTGTCACATCTTTATACGGAGTCACCTAGTGCAG | 10200 fluorescence intensity (a.u.)
36 | CTCCGCTCGCCAGCCTATCCACCTTGCGTCGCTGCTCACGCGGAGTCACCTAGTGCAG | 9010 fluorescence intensity (a.u.)
37 | TTGGCGGTGGTGGCGACTTAATTCCGCGTGGCGCGACGGCCGGAGTCACCTAGTGCAG | 9260 fluorescence intensity (a.u.)
38 | CTCGTTCCGTTGTCTCAGCGCGTTTGACCAGCGATCTACTCGGAGTCACCTAGTGCAG | 12200 fluorescence intensity (a.u.)
39 | CCCCAACAAGTGCCTCGTCGCCTGCGCCTACTGCCTCACCCGGAGTCACCTAGTGCAG | 8560 fluorescence intensity (a.u.)
40 | ATATCGTTCGGATGTTTTTACTCTTTTTTTTTCGATTTGTCGGAGTCACCTAGTGCAG | 10100 fluorescence intensity (a.u.)
41 | GCGTTACATACATCCTTATTATGTTGTTCATGTTTATAAACGGAGTCACCTAGTGCAG | 8240 fluorescence intensity (a.u.)
42 | ATCTTAATTTACCTTTCACTGCATCTAATATGTCACTTTGCGGAGTCACCTAGTGCAG | 8630 fluorescence intensity (a.u.)
43 | CCCATCGGTTTATGCAGCATCGCGCTTCTGCCGCTGCCCGCGGAGTCACCTAGTGCAG | 9160 fluorescence intensity (a.u.)
44 | GATGTGGTATTAATATATGGTTGATTAAGTTTTAATTATTCGGAGTCACCTAGTGCAG | 8460 fluorescence intensity (a.u.)
45 | GACCGGCGAAACCGACGCGAACCTGCCGTTATCCCACAACCGGAGTCACCTAGTGCAG | 11900 fluorescence intensity (a.u.)
46 | TATAAATCTGTAACCCGTTGTCCTTCTCTTTCCTTATTTACGGAGTCACCTAGTGCAG | 8680 fluorescence intensity (a.u.)
47 | ACATCCTATCCCGTGCATTGAATCAGCATTGTACAGCAAACGGAGTCACCTAGTGCAG | 8950 fluorescence intensity (a.u.)
48 | CGCCGACTTCGCGACGCCACGCTGTCTTTGACCGGCTCCGCGGAGTCACCTAGTGCAG | 8040 fluorescence intensity (a.u.)
49 | AGAACACGCCACCTTCCGCATCGTCGGCAGCCGCCTCCTCCGGAGTCACCTAGTGCAG | 9320 fluorescence intensity (a.u.)
50 | TTTCTTTAGGTCAGTTTTGGTTATTTCTCAGTCAGATCATCGGAGTCACCTAGTGCAG | 12100 fluorescence intensity (a.u.)
51 | AAAAAATAACACACACCCTTAGGCCATTCGATTTTATTTTCGGAGTCACCTAGTGCAG | 11100 fluorescence intensity (a.u.)
52 | GATCTCAGCTGTCTAAGCTTCATTTCAGGTATCAACACTTCGGAGTCACCTAGTGCAG | 12100 fluorescence intensity (a.u.)
53 | ACCATGTTTGGTCCTTAGTACTTACTACCTCCGTATTTTACGGAGTCACCTAGTGCAG | 8810 fluorescence intensity (a.u.)
54 | ACTGCTCGCCATTGGTCTGACCATCGTCTTGCCACCGGACCGGAGTCACCTAGTGCAG | 10100 fluorescence intensity (a.u.)

In a second layout: results already given

| Row | Sequence | binding signal |
| --- | --- | --- |
| 49 | AGAACACGCCACCTTCCGCATCGTCGGCAGCCGCCTCCTCCGGAGTCACCTAGTGCAG | 9320 fluorescence intensity (a.u.) |
| 50 | TTTCTTTAGGTCAGTTTTGGTTATTTCTCAGTCAGATCATCGGAGTCACCTAGTGCAG | 12100 fluorescence intensity (a.u.) |
